Consider 54 compounds from the supplement of paper PMC10735217.

The subject of the assay is HEK293A TEAD-LUC reporter. Kind of assay: TEAD-luciferase reporter activity (YAP activation), robust Z score vs plate; higher = stronger YAP/TEAD activation. To be noted: 24 h.

Structures are written as SMILES. Where “and” joins values, the source holds several entries; their conditions need not be identical. Identical values can stand only once. Counter-ions that a name gives are not always drawn. Some of the results follow. Single values are uncertain here, since repeats match poorly.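 Human kidney-derived cells stably carry a construct in which eight TEAD-binding elements drive luciferase, measured by luminescence in a drug-repurposing library screen. A hit is any compound whose signal exceeds the plate mean by more than five robust Z scores.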

With `CC1(C)[C@H]2CC[C@]1(C)[C@@H](O)[C@H]2O` [2,3-cis/exo-Camphanediol], the TEAD-luciferase reporter activity by setting is: (compound concentration: 200 nM) inactive: 2.41; (compound concentration: 2 uM) inactive: -2.38; (compound concentration: 10 uM) inactive: -0.281.
Consider `COc1ccc2cc1Oc1ccc(cc1)C[C@H]1c3cc(c(OC)cc3CCN1C)Oc1c(OC)c(OC)c(Br)c3c1[C@H](C2)N(C)CC3` [5-Bromotetrandrine], for which the TEAD-luciferase reporter activity (compound concentration: 200 nM) is inactive: 0.0282, the TEAD-luciferase reporter activity (compound concentration: 2 uM) was inactive: 0.17 and the TEAD-luciferase reporter activity (compound concentration: 10 uM) was inactive: 2.2.
In the case of `C1CCN2C[C@@H]3C[C@@H](CN4CCCC[C@@H]34)[C@H]2C1`, the TEAD-luciferase reporter activity runs as follows: (compound concentration: 200 nM) inactive: -1.4; (compound concentration: 10 uM) inactive: -0.101.
For the compound `C1CCN2C[C@@H]3C[C@@H](CN4CCCC[C@@H]34)[C@H]2C1` [Sparteine sulfate], where the note is “compound concentration: 2 uM”, the TEAD-luciferase reporter activity was inactive: -1.14.
As for `CC(=O)OCC1=C(C(=O)O)N2C(=O)[C@@H](NC(=O)c3c(-c4ccccc4Cl)noc3C)[C@H]2SC1`, the TEAD-luciferase reporter activity was inactive: -1.57 (compound concentration: 200 nM), inactive: -0.181 (compound concentration: 2 uM) and inactive: -2.37 (compound concentration: 10 uM).
On the same counts, the results for `CC(N)C(O)c1cccc(O)c1` (stereo not drawn) [Metaraminol] are inactive: -0.245, inactive: -0.95 and inactive: -1.08.
As for `CC(C)N1CCN(c2ccc(N3CCN(c4ccc(OC[C@H]5OC[C@@](Cn6cncn6)(c6ccc(F)cc6F)O5)cc4)CC3)cc2)C1=O`, the TEAD-luciferase reporter activity is inactive: -0.19 (compound concentration: 200 nM), inactive: -0.598 (compound concentration: 2 uM) and active: 5.26 (compound concentration: 10 uM).
Turning to `O=C(C=CC=Cc1ccc2c(c1)OCO2)N1CCCCC1` [Piperine], the TEAD-luciferase reporter activity (compound concentration: 2 uM) is inactive: 4.03.
Turning to `S=C(NCCc1ccccn1)Nc1ccc(Br)cn1`, the TEAD-luciferase reporter activity runs as follows: (compound concentration: 200 nM) inactive: -0.567; (compound concentration: 2 uM) inactive: -1.75; (compound concentration: 10 uM) inactive: -0.0386.
On the same counts, the results for `CC(C)=CCC/C(C)=C/CC/C(C)=C/CC/C(C)=C/C=C/C=C(\C)CC/C=C(\C)CC/C=C(\C)CCC=C(C)C` [trans-Phytoene] are inactive: 2.56, inactive: -0.37 and inactive: 0.275.
For `CCC(C)[C@@H]1NC(=O)[C@H](Cc2ccc(O)cc2)N(C)C(=O)CCCSC[C@@H](C(=O)N2CCC[C@H]2C(=O)N[C@@H](CC(C)C)C(=O)NCC(N)=O)NC(=O)[C@H](CC(N)=O)NC(=O)[C@H](CCC(N)=O)NC1=O` (stereo partly drawn) [carbetocin] the same measures were inactive: -2.5, inactive: -0.591 and inactive: 0.818.
On the same counts, the results for `O=C(O)C1(c2ccc(-c3ccc(Cl)c(Cl)c3)c(F)c2)CC1` are inactive: 2.03, inactive: -1.72 and inactive: 3.71.
Consider `CC(C)CCC[C@@H](C)[C@H]1CC[C@H]2[C@@H]3CCC4=C/C(=N/O)CC[C@]4(C)[C@H]3CC[C@]12C` [olesoxime], for which the TEAD-luciferase reporter activity (compound concentration: 200 nM) is inactive: -1.04, the TEAD-luciferase reporter activity (compound concentration: 2 uM) is inactive: -0.271 and the TEAD-luciferase reporter activity (compound concentration: 10 uM) was inactive: 1.19.
With `CCCCN(CC)c1cc(C)nc2c1NC(=O)CN2c1ccc(OC)nc1OC` [CRF-1 antags, BMS], the TEAD-luciferase reporter activity runs as follows: (compound concentration: 200 nM) inactive: -0.0192; (compound concentration: 10 uM) inactive: -0.795.
With `CCCCN(CC)c1cc(C)nc2c1NC(=O)CN2c1ccc(OC)nc1OC` [CRF-1 antags], the TEAD-luciferase reporter activity (compound concentration: 2 uM) is inactive: -0.154.
On to `CCCC(=O)OCC(=O)[C@@]1(O)CC[C@H]2[C@@H]3CCC4=CC(=O)CC[C@]4(C)[C@H]3[C@@H](O)C[C@@]21C`, for which the TEAD-luciferase reporter activity is, setting by setting: (compound concentration: 200 nM) inactive: -0.648; (compound concentration: 2 uM) inactive: 1.08; (compound concentration: 10 uM) active: 6.44.
Consider `O=C1NC2(Cc3ccccc31)CN(C(=O)C1CCCCC1)C2`, for which the TEAD-luciferase reporter activity is inactive: -2 (compound concentration: 200 nM) and inactive: -1.03 (compound concentration: 10 uM).
On the same counts, the results for `CN(Cc1ccccc1C(F)(F)F)C1CCc2ccccc21` (stereo not drawn) are inactive: -1.51 and inactive: -1.49.
For `CC(C)(c1ccc(O)cc1)c1ccc(O)cc1` the same measures were inactive: -0.926 and inactive: -0.574.
In the case of `CC(C)(c1ccc(O)cc1)c1ccc(O)cc1` [Bisphenol A], where the note is “compound concentration: 2 uM”, the TEAD-luciferase reporter activity was inactive: -0.574.
For `COc1cc(O)ccc1CCCc1ccc(O)cc1`, the TEAD-luciferase reporter activity by setting is: (compound concentration: 200 nM) inactive: 0.00437; (compound concentration: 2 uM) inactive: -0.382; (compound concentration: 10 uM) inactive: -0.427.
For `C=CCn1c(N)cc(=O)n(CC)c1=O` the same measures were inactive: 0.631, active: 5.9 and inactive: -0.278.
For the compound `NCCCC(N)(C(=O)O)C(F)F` (racemic) [DL-alpha-Difluoromethylornithine hydrochloride], the TEAD-luciferase reporter activity reads like this: (compound concentration: 200 nM) inactive: -1.62; (compound concentration: 10 uM) inactive: -0.748.
`N#Cc1ccc(C(C(O)Cc2ccc(F)cc2)n2cncn2)cc1` (stereo not drawn): the TEAD-luciferase reporter activity (compound concentration: 200 nM) is inactive: -0.957, the TEAD-luciferase reporter activity (compound concentration: 2 uM) was inactive: 0.127 and the TEAD-luciferase reporter activity (compound concentration: 10 uM) was inactive: -1.21.
On the same counts, the results for `CCS(=O)(=O)Nc1ccc(Oc2ccc(F)cc2F)c(-c2cn(C)c(=O)c3[nH]ccc23)c1` are active: 29.7, active: 12.4 and active: 19.1.
Consider `CCCCCCCCCCCCCCC[C@@H](O)[C@H](CO)NC(C)=O`, for which the TEAD-luciferase reporter activity (compound concentration: 2 uM) was inactive: -1.13.
In the case of `CCCCCCCCCCCCCCC[C@@H](O)[C@H](CO)NC(C)=O` [Cedefingol], the TEAD-luciferase reporter activity is inactive: 1.49 (compound concentration: 200 nM) and inactive: 1.38 (compound concentration: 10 uM).
As to `COCCOC(=O)CN1CCC(NC(=O)c2cc(Cl)c(N)cc2OC)CC1`, the TEAD-luciferase reporter activity was inactive: -1.07 (compound concentration: 200 nM), inactive: -0.694 (compound concentration: 2 uM) and inactive: -0.944 (compound concentration: 10 uM).
In the case of `COc1cc(NCCCCCCN2CCN(CCC(C)O)CC2)c2ncccc2c1` (stereo not drawn) [Moxipraquine], the TEAD-luciferase reporter activity reads like this: (compound concentration: 200 nM) inactive: -1.05; (compound concentration: 10 uM) inactive: 0.389.
As for `CN[C@H]1[C@H](O)C[C@H]2[C@@H]3CCc4cc(O)ccc4[C@H]3CC[C@@]21C`, the TEAD-luciferase reporter activity by setting is: (compound concentration: 200 nM) inactive: -1.4; (compound concentration: 2 uM) inactive: -0.552; (compound concentration: 10 uM) inactive: -0.422.
On the same counts, the results for `CC(C)=CCC[C@](C)(O[C@@H]1O[C@H](CO)[C@@H](O)[C@H](O)[C@H]1O)[C@H]1CC[C@]2(C)[C@@H]1[C@H](O)C[C@@H]1[C@@]3(C)CC[C@H](O)C(C)(C)[C@@H]3CC[C@]12C` [20-O-beta-D-Glucopyranosyl-20(S)-protopanaxadiol] are inactive: -0.752, inactive: -1.08 and inactive: -0.741.
For `CC(C)(C)C(=O)Oc1cc2c(s1)CC[N+]([O-])(Cc1ccccc1Cl)C2` (stereo not drawn) the same measures were inactive: -1.45, inactive: -0.505 and inactive: -1.69.
For `CN(C)CCN(Cc1ccc(Cl)cc1)c1ccccn1` [Chloropyramine] the same measures were inactive: 0.0154, inactive: 0.627 and inactive: 1.29.
`C[C@H](Cc1cc2c(c(C(N)=O)c1)N(CCCO)CC2)NCCOc1ccccc1OCC(F)(F)F` [silodosin]: the TEAD-luciferase reporter activity is, setting by setting: (compound concentration: 200 nM) inactive: -1.17; (compound concentration: 2 uM) inactive: -1.33; (compound concentration: 10 uM) inactive: 3.35.
On the same counts, the results for `O=C(O)[C@]1(Cc2cccc(Nc3nccs3)n2)CC[C@@H](Oc2cccc(Cl)c2F)CC1` are inactive: 2.49, inactive: -1.82 and inactive: 0.884.
On the same counts, the results for `Cc1ccc2c(c1)nc1cc(Nc3ccc(Cl)cc3)/c(=N/C3CCCCCCC3)cc-1n2-c1ccc(Cl)cc1` are inactive: -1.78, inactive: -1.74 and inactive: 1.07.
For `CC1=C(c2ccc(-n3ccnc3)cc2)NNC(=O)C1` the same measures were inactive: 0.112, inactive: -1.28 and inactive: -0.917.
`Cc1cc(Oc2ccc3nc(COc4ccc(Cc5sc(O)nc5O)cc4)n(C)c3c2)cc(C)c1N` [2016-03-02: Efatutazone hydrochloride]: the TEAD-luciferase reporter activity (compound concentration: 200 nM) was inactive: -0.167 and the TEAD-luciferase reporter activity (compound concentration: 10 uM) is active: 7.37.
With `Cc1cc(Oc2ccc3nc(COc4ccc(Cc5sc(O)nc5O)cc4)n(C)c3c2)cc(C)c1N` [_:_2016-03-02: Efatutazone hydrochloride], the TEAD-luciferase reporter activity (compound concentration: 2 uM) is inactive: 0.819.
Still for that read-out and setting: in the case of `Cc1cc2c(OCC(CNC(C)(C)C)OC(=O)c3ccccc3)cccc2[nH]1` (stereo not drawn) [bopindolol] it was inactive: -0.902.
In the case of `Cc1cc2c(OCC(CNC(C)(C)C)OC(=O)c3ccccc3)cccc2[nH]1` (stereo not drawn) [Bopindolol malonate], the TEAD-luciferase reporter activity is inactive: -1.93 (compound concentration: 200 nM) and inactive: -1.36 (compound concentration: 10 uM).
Consider `COc1cc2[nH]c(=O)c3n[nH]nc3c(=O)c2cc1OC` [metabolite of ME-3301], for which the TEAD-luciferase reporter activity reads like this: (compound concentration: 200 nM) inactive: -1.38; (compound concentration: 2 uM) inactive: 1.79; (compound concentration: 10 uM) inactive: -0.989.
For `CC(C)c1ccc2c(CCCCNS(=O)(=O)c3ccc(Cl)cc3)cc(S(=O)(=O)O)c-2cc1` the same measures were inactive: -1.23, inactive: 0.0429 and inactive: 1.19.
On the same counts, the results for `CCCn1c(=O)c2[nH]c(C3CCCC3)nc2n(CCC)c1=O` are inactive: 1.43, inactive: 1.16 and inactive: 2.97.
For the compound `CCCN(Cc1ccc(-c2ccccc2-c2nnn[nH]2)cc1)c1ncccc1C(=O)O`, the TEAD-luciferase reporter activity was inactive: -0.96 (compound concentration: 200 nM), inactive: -1.11 (compound concentration: 2 uM) and inactive: -0.875 (compound concentration: 10 uM).
On the same counts, the results for `CSc1nn2c(C)cc(C)nc2c1S(=O)(=O)c1ccccc1` are inactive: 1.65, inactive: -1.21 and inactive: 2.3.
Turning to `O=C1c2c(c3c4ccc(O)cc4n([C@@H]4O[C@H](CO)[C@@H](O)[C@H](O)[C@H]4O)c3c3[nH]c4cc(O)ccc4c23)C(=O)N1NC(CO)CO`, the TEAD-luciferase reporter activity is inactive: -1.65 (compound concentration: 200 nM), inactive: -1.78 (compound concentration: 2 uM) and inactive: 0.355 (compound concentration: 10 uM).
For `COc1cc(C2C(C#N)=C(N)Oc3c2ccc(N)c3N)cc(Br)c1OC` (stereo not drawn) [Crolibulin] the same measures were active: 5.72, active: 7.51 and inactive: 3.62.
For `NCCCNCCCCNCCCN` the same measures were active: 5.01, inactive: -0.184 and inactive: -0.921.
On the same counts, the results for `CCCCCCCC(=O)OCCCC` are inactive: 1.07, inactive: 0.0305 and inactive: -1.42.
Turning to `O=C(O)CSc1nnc(Br)n1-c1ccc(C2CC2)c2ccccc12` [lesinurad], the TEAD-luciferase reporter activity runs as follows: (compound concentration: 200 nM) inactive: -1.85; (compound concentration: 2 uM) inactive: -0.341; (compound concentration: 10 uM) inactive: -1.39.
Take `CC1c2ccccc2Cn2cc3c(c21)C(=O)c1cccc(OP(=O)(O)OCc2ccccc2)c1C3=O` (stereo not drawn) [Fosquidone]: the TEAD-luciferase reporter activity (compound concentration: 200 nM) was inactive: -0.763, the TEAD-luciferase reporter activity (compound concentration: 2 uM) is inactive: -0.0995 and the TEAD-luciferase reporter activity (compound concentration: 10 uM) was inactive: -1.03.
Take `N[C@H]1CC[C@H](c2ccc(Cl)c(Cl)c2)c2ccccc21` [Dasotraline]: the TEAD-luciferase reporter activity by setting is: (compound concentration: 200 nM) inactive: 3.19; (compound concentration: 2 uM) inactive: 1.65; (compound concentration: 10 uM) inactive: 1.15.
As to `Cn1cnc2c1c(=O)[nH]c(=O)n2C`, the TEAD-luciferase reporter activity (compound concentration: 200 nM) is inactive: -0.0797; the TEAD-luciferase reporter activity (compound concentration: 2 uM) was inactive: -0.806 and inactive: -0.996; the TEAD-luciferase reporter activity (compound concentration: 10 uM) was inactive: -0.624.
